{
  "source": "patent US20070026090A1",
  "about": "“Treatment and prevention of inflammatory disease and mitochondrial dysfunction with high dose selenium” (priority 2003, published 2007)",
  "key": {"[1]": {"test_system": "mitochondrial respiration in colon tissue", "test": "Mitochondrial respiration (oxygen consumption) in colon tissue of supplemented rats", "assay_type": "in vivo, rat", "settings": "24 h after TNBS; supplemented vs unsupplemented (FIG. 5 C vs D); unsupplemented approximately 70% impairment", "experimental": "Mitochondrial respiration activity in colon tissue: Mitochondrial respiration was measured by direct assessment of oxygen consumption of the tissue. Briefly, colons were removed, chilled on ice, and washed extensively with cold PBS. Colon tissue samples (5-10 mm in width, 100 mg) were incubated at ambient temperature in PBS supplemented with 5 mM glucose. Oxygen consumption was measured polarographically using a computerized Clark-type oxygen electrode. The addition of the Electron Transport Chain (complex 1) inhibitor rotenone was used to determine whether the majority of oxygen consumption measured in the colon samples was mitochondrial respiration-dependent."}, "NRF-1": {"test_system": "NRF-1", "test": "NRF1 mRNA in colon tissue (RT-PCR)", "assay_type": "in vivo, rat", "experimental": "Mitochondrial (mt) TFA, NRF1, and cytochrome c mRNA analysis: Total RNA was extracted from 50 to 100 mg tissue at a time using 1 ml of Tri Reagent® (Sigma-Aldrich Corp., St. Louis, Mo.) according to manufacturer's instructions. First strand cDNA synthesis was carried out using reverse-iTTM First Strand Synthesis from Advanced Biotechnologies (ABgene®, ABgene, Epsom, U.K.) was used according to the manufacturer's instructions. Target sequences were amplified in the PCR reaction as follows: each tube contained 37 ng of cDNA from cytochrome c, GAPDH, or 18S, 3 μl of specific primers, 12.5 μl of ready Mix and 6.5 μl water DEPC (for a total 25 μl in each tube).\nThe PCR for cytochrome c, NRF1 and mtTFA was run at 95° C. for 5 min, 94° C. for 30 sec, 56° C. for 2 min, 72° C. for 1 min, back to stage 2 for 22, 26, 24 cycles, respectively, then 72° C. for 10 min, and 4° C. The products of the PCR were separated on a 1% agarose gel in TAE buffer with ethidium bromide. The electrophoresis took place in a BioRad device in 1×TAE buffer at 95 V for about 50 min (maximum mA). The size of the cDNA was determined by a 100-bp marker.\nRat NFR-1: (Antisense) 5′-[…]-3′ (SEQ ID No. 13) corresponding to nucleotides 450 to 469 of rat NFR-1 (GenBank Accession No. XM231566).\n(Sense): 5′-[…] -3′ (SEQ ID No. 14). The expected PCR product was 461 bp, the actual 461 bp."}, "Sp1 [2]": {"test_system": "Sp1", "test": "Sp1 protein (Western blot)", "assay_type": "cell-based, murine", "settings": "FIG. 13B", "experimental": "Western blots (Sp1, MnSOD, UCP2): Cells were grown in six-well tissue culture plates, treated with selenium for 72 h and activated with LPS and IFN-γ for 24 h. The wells were washed with PBS, scraped and centrifuged\n(5 min. 2000 RPM), and lysed by addition of boiling hot lysis buffer (1% SDS, 1 mM sodium ortho-vanadate, 10 mM Tris pH 7.4) to the pellets. Protein content was measured (BIO RAD protein assay kit) and equalized. Sample buffer (containg SDS) was added and the samples were boiled. The samples were subjected to SDS-PAGE followed by western blot analysis. Separated proteins were transferred electrophoretically from the gel to a nitrocellulose membrane (Amersham International plc, Buckinghamshire, ENGLAND). The membrane was blocked in TBS (0.15 M NaCl/10 mM Tris/HCl, pH7.4) containing 5% (v/v) skimmed milk (Blotto), then incubated over night with primary antibodies at RT (diluted 1/2000 in blotto). After being washed six times in TBST [TBS containing 0.05% (v/v) Tween 20], the membrane was incubated for 2 h at room temperature with secondary antibody (diluted 1/5000 in blotto). Immunoreactive bands were detected with ECL western blotting detection reagents (Amersham Pharmacia Biotech, Buckingammshire England) and developed on film (Fuji super RX, Dusseldorf, Germany). […]"}, "Sp1 [3]": {"test_system": "Sp1", "test": "Sp1 binding in vitro, selenite added to nuclear extract (EMSA)", "set-up": "species or system murine", "settings": "5 μM added to nuclear extract 5 minutes before (FIG. 13C)", "experimental": "Nuclear extracts: Nuclear Extracts were prepared using a slight modification of the method of Dignam et al (23). Treated cells were washed with cold PBS, scraped and centrifuged. Hypotonic buffer (1 ml, 20 mM HEPES pH 7.0, 10 mM KCl, 1 mM mGCl2, 0.5 mM DTT, 0.1% Triton X-100, 20% glycerol, 2 mM PMSP, 1 mg/ml Aprotonin and Leupeptin) was added to the cell pellets, the pellets were disrupted by pipetting, and centrifuged 3000 RPM for 5 min. The pellets were re-suspended in 100 μl cold extraction buffer (20 mM HEPES pH 7.0, 10 mM KCl, 1 mM mGCl2, 0.5 mM DTT, 0.1% Triton X-100, 20% glycerol, 2 mM PMSF, 1 mg/ml Aprotonin and Leupeptin, 420 mM NaCl). The samples were rotated for 20 min at 4° C., centrifuged 15,000 RPM for 10 min, and supernatants collected. Protein content was measured using Bradford reagent. Samples were stored frozen at minus 70° C.\nElectromobility shift assay (EMSA)—Gel shift assays were performed according to the gel shift assay protocol from Promega Corp. (San Luis Obispo, Calif.). A 22-mer double-stranded NF-κB consensus oligonucleotide 5′-[…]-3′ (SEQ ID NO:3), and Sp1 consensus oligonucleotide 5′-[…]-3(SEQ ID NO:4), were labeled with 32P. […]"}},
  "note": "At least one structure is not confirmed: it was looked up by name or label, or the drawing left a doubt.",
  "data": [
    {"smiles": "O=[Se](O)O", "note": "[sodium selenite]", "values": [
      {"measurement": "hapten-induced impairment in oxygen consumption", "setting": "[1]", "result": "significant protection"},
      {"measurement": "NRF-1 levels in colon tissue, colitis-induced rats", "setting": "NRF-1; 24 h after TNBS, supplemented (FIG. 17 lane 4), unsupplemented nearly 50% reduction", "result": "strong increase"},
      {"measurement": "NRF-1 levels in colon tissue, healthy rats", "setting": "NRF-1; healthy supplemented rats (FIG. 17 lane 2)", "result": "strong increase"},
      {"measurement": "Sp-1 gene expression / synthesis (Western blot)", "setting": "Sp1 [2]", "result": "lack of effect"},
      {"measurement": "Sp-1 binding in vitro", "setting": "Sp1 [3]", "result": "inhibitory effect"}
    ]}
  ]
}
